# Experimental data reported in paper PMC7714401.
# By UniProt entry, the sequences of proteins in these tests, tags left out. Residues count along the entry.
# UniProt Q02413, residues 50-548: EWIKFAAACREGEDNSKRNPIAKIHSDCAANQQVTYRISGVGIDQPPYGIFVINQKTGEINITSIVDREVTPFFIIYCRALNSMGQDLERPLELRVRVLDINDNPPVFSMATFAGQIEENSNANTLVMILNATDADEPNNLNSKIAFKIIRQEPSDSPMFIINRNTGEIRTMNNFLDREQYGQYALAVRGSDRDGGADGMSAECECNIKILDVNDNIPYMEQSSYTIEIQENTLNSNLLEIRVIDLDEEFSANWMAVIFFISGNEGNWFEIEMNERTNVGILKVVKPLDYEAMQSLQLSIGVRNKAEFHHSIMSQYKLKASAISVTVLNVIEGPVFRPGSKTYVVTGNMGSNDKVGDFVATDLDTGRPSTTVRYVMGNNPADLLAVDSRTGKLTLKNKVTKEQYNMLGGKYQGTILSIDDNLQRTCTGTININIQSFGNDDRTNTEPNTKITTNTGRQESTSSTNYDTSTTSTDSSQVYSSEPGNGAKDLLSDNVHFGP
# No constants are given. Whether binding was seen depends on the method and setting. Tags and fused reporters may be left off the sequences shown.
# T1: recombinant human Dsg3 (human) (UniProt P32926)
# T1 sequence: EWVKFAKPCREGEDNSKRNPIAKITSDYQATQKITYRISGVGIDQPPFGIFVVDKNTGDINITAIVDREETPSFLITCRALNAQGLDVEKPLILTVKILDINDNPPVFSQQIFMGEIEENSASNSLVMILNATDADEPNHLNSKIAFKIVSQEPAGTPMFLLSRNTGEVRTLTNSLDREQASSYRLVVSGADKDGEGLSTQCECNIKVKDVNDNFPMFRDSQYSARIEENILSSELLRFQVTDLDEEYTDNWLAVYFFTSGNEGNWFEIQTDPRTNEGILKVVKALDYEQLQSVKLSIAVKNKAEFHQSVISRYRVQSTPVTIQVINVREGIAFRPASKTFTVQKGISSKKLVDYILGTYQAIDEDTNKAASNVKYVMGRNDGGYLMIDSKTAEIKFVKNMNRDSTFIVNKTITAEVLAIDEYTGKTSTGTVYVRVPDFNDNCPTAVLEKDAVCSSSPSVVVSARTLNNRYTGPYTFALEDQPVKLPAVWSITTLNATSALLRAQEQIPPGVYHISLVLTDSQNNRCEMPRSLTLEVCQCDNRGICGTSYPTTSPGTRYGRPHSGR
# B1: recombinant form of the CFP32 protein of Mycobacterium tuberculosis (protein, UniProt P9WIR3 1-261)
# chain: MPKRSEYRQGTPNWVDLQTTDQSAAKKFYTSLFGWGYDDNPVPGGGGVYSMATLNGEAVAAIAPMPPGAPEGMPPIWNTYIAVDDVDAVVDKVVPGGGQVMMPAFDIGDAGRMSFITDPTGAAVGLWQANRHIGATLVNETGTLIWNELLTDKPDLALAFYEAVVGLTHSSMEIAAGQNYRVLKAGDAEVGGCMEPPMPGVPNHWHVYFAVDDADATAAKAAAAGGQVIAEPADIPSVGRFAVLSDPQGAIFSVLKPAPQQ
# Experiments:
# [1] = target: T1, recombinant human Dsg3 (human); test: ELISA; plates coated with 0.1 μg recombinant protein in carbonate-bicarbonate buffer (0.1 M, pH 9.6) at 4°C overnight; incubated with decreasing concentrations of rPpSP32 (or CFP32) for 1 hour at 37°C; detected with human sera containing anti-PpSP32 or anti-CFP32 antibodies; both purified
# [2] = target: recombinant human Dsg1 (human) (UniProt Q02413); test: as above
binder,measurement,setting,value
B1,binding,[1],no binding
same,binding,[2],no binding
